Drawing on article PMC12096953, “Insights into heme degradation and hydrogen peroxide-induced dimerization of human neuroglobin” (Bioscience Reports, 2025), this text covers binding for three molecules.

Where a chain is given by its changes, count along the chain named. Names may count otherwise. Results are given in words; binding and its absence hold for the method and conditions named. Some entries that bind do so weakly or less than the wild type.

Assay [1] has as its target human neuroglobin Y44A variant (human) (UniProt Q9NPG2). Briefly: cross-linking; H2O2-induced covalent Tyr-Tyr links: dimers isolated by SEC (HiLoad 16/600 Superdex 75) after 15-fold (wild type) or 17-fold (Y44A) excess of H2O2, S-alkylated, trypsin digest, LC-ESI-MS/MS peptide mapping; both purified.
The target in assay [2] is human neuroglobin Y44FC46AC55A variant (human) (UniProt Q9NPG2). The assay can be described thus: SEC-MALS; HPLC-SEC-PDA-MALS, Superdex 200 10/300 GL, 1x PBS pH 7.4, 25°C, detection at 412 nm; 1 μg/μL protein incubated 20 h at 4°C with different molar excess of H2O2 before the run; monomer to covalent dimer; both purified. (Size exclusion chromatography separates by hydrodynamic size, large species first.)

For assay [3], the target named is human neuroglobin C46AC55A variant (human) (UniProt Q9NPG2). The assay is described as above.

B1: human neuroglobin Y44A variant (natural protein, UniProt Q9NPG2 1-151, looked up)
chain: MERPEPELIRQSWRAVSRSPLEHGTVLFARLFALEPDLLPLFQANCRQFSSPEDCLSSPEFLDHIRKVMLVIDAAVTNVEDLSSLEEYLASLGRKHRAVGVKLSSFSTVGESLLYMLEKCLGPAFTPATRAAWSQLYGAVVQAMSRGWDGE
notes: human neuroglobin (hNgb) with Y44A; also called hNgb Y44A
In the case of B1, the binding entry in assay [1] is listed as “binds weakly”.

B2: human neuroglobin Y44FC46AC55A variant (protein, UniProt Q9NPG2 1-151)
chain: B1 chain with A44F, C46A, C55A
Regarding B2, the binding result in assay [2] was “no binding”.

B3: human neuroglobin C46AC55A variant (protein, UniProt Q9NPG2 1-151)
chain: B1 chain with A44Y, C46A, C55A
For the molecule B3, the binding result in assay [3] is reported as “no binding”.
